Assay results reported in doi:10.1101/2024.11.25.625148.
Like-named read-outs stand apart in the source and are kept apart here. Results are given in words; binding and its absence hold for the method and conditions named. Binding seen in cells or lysates may run through a third protein. Some entries that bind do so weakly or less than the wild type.

Chains of the proteins cited; added tags and fusions are not shown. Residues count along the entry.
UniProt Q8K2C6, residues 37-310: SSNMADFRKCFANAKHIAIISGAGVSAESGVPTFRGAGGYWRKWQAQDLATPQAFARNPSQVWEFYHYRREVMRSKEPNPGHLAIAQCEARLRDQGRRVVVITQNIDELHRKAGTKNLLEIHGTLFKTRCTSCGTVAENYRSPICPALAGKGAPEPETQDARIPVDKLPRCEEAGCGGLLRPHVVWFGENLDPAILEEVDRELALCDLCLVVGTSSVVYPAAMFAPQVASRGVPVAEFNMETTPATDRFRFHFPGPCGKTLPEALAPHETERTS

Tests used:
[1] = molecular target: Sirt5 (mouse (endogenous in HL-1 cells and mouse myocardium)) (UniProt Q8K2C6); experiment: co-IP
[2] = molecular target: Sirt5 (mouse (endogenous in HL-1 cells and mouse myocardium)) (UniProt Q8K2C6); experiment: co-IP; remark: listed apart in the source

- binding [1]: binds
- binding [2]: binds
B1: adenine nucleotide translocase 2 (ANT2) (protein, UniProt P51881 1-298)
chain: MTDAAVSFAKDFLAGGVAAAISKTAVAPIERVKLLLQVQHASKQITADKQYKGIIDCVVRIPKEQGVLSFWRGNLANVIRYFPTQALNFAFKDKYKQIFLGGVDKRTQFWRYFAGNLASGGAAGATSLCFVYPLDFARTRLAADVGKAGAEREFKGLGDCLVKIYKSDGIKGLYQGFNVSVQGIIIYRAAYFGIYDTAKGMLPDPKNTHIFISWMIAQSVTAVAGLTSYPFDTVRRRMMMQSGRKGTDIMYTGTLDCWRKIARDEGSKAFFKGAWSNVLRGMGGAFVLVLYDEIKKYT
